In article PMC10648541, “Design, Synthesis, and Antiproliferative Activity of Selective Histone Deacetylases 6 Inhibitors Containing a Tetrahydropyridopyrimidine Scaffold” (Molecules, 2023):

Tests used:
HL60 = assay: Antiproliferative assay (Alamar blue, 72 h), HL60; assay type: cell-based; settings: HL60 cells, three independent experiments, SD < 10%, read-out: Antiproliferative effect IC50, HL60
Procedure: (§1) The cells were cultured in IMDM (Gibco) medium with 20% FBS (Lonsera), 100 U/mL penicillin, and 100 µg/mL streptomycin (Solarbio). All cells were maintained at 37 °C in a humidified atmosphere of 5% CO2 in air. Briefly, 100 µL cell suspension or completed medium was plated into a 96-well plate. Compounds were added and incubated for 72 h. Then, 22 µL Alamar blue solution (1 mM) was pipetted into each well of a 96-well plate, and the plate was incubated for an additional 5~6 h. The absorbance (OD) was read at 530/590 nm. Data were normalized to vehicle groups (DMSO) and represented as the means of three independent measurements with standard errors of <20%. The IC50 values were calculated using Prism 5.0.

HCT116 = assay: Antiproliferative assay (Alamar blue, 72 h), HCT116; assay type: cell-based; settings: HCT116 cells, three independent experiments, SD < 10%, read-out: Antiproliferative effect IC50, HCT116
Procedure: as §1

With `O=C(CCCCCCC(=O)Nc1ccccc1)NO` [SAHA, reference compound] as the compound, how does the IC50 (HL60) read?
The IC50 was 870 nM.

And the IC50 (HCT116)?
The IC50 was 4500 nM.
